Results on one molecule are retold here after PMC9798610.

The target of the test is T1, apoptosis-associated speck-like protein containing a CARD (ASC) (mouse (endogenous in BMDMs)) (UniProt Q9EPB4).
T1 sequence: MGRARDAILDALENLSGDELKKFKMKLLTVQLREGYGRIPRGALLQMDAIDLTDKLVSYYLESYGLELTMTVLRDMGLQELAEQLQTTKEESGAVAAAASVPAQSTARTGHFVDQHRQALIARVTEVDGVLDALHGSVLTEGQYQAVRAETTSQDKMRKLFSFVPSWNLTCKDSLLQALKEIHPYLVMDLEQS
Kind of test: co-IP; endogenous proteins; LPS (500 ng/ml)-primed BMDMs treated with or without LND (0.2 mM) for 30 min, then ATP for 30 min; IP lysis buffer, primary antibody or normal IgG overnight at 4 °C, protein G beads, immunoblot. (In western blotting, separated proteins are transferred to a membrane and probed.)

Results are given in words; binding and its absence hold for the method and conditions named. Binding seen in cells or lysates may run through a third protein. Some entries that bind do so weakly or less than the wild type.

B1: caspase-1 (enzyme, UniProt P29452 1-402)
chain: MADKILRAKRKQFINSVSIGTINGLLDELLEKRVLNQEEMDKIKLANITAMDKARDLCDHVSKKGPQASQIFITYICNEDCYLAGILELQSAPSAETFVATEDSKGGHPSSSETKEEQNKEDGTFPGLTGTLKFCPLEKAQKLWKENPSEIYPIMNTTTRTRLALIICNTEFQHLSPRVGAQVDLREMKLLLEDLGYTVKVKENLTALEMVKEVKEFAACPEHKTSDSTFLVFMSHGIQEGICGTTYSNEVSDILKVDTIFQMMNTLKCPSLKDKPKVIIIQACRGEKQGVVLLKDSVRDSEEDFLTDAIFEDDGIKKAHIEKDFIAFCSSTPDNVSWRHPVRGSLFIESLIKHMKEYAWSCDLEDIFRKVRFSFEQPEFRLQMPTADRVTLTKRFYLFPGH
Take B1: the binding result is listed as “binds”.
